# Residue numbers refer to the chain shown, from its start. No constants are given. Whether binding was seen depends on the method and setting. Some entries that bind do so weakly or less than the wild type.
# Chains of the proteins cited; added tags and fusions are not shown. Lines headed by an entry give the natural chain unless they say otherwise; changes in a name come on top.
# UniProt Q6UXN8: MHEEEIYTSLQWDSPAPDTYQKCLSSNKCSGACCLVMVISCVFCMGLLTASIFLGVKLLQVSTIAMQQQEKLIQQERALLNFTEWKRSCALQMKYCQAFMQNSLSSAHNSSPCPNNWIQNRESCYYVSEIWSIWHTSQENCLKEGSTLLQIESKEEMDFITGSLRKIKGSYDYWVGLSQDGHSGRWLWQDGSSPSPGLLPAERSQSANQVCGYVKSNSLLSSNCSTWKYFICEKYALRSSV
# T1: mouse Clec9A (mouse) (UniProt Q8BRU4)
# T1 sequence (looked up): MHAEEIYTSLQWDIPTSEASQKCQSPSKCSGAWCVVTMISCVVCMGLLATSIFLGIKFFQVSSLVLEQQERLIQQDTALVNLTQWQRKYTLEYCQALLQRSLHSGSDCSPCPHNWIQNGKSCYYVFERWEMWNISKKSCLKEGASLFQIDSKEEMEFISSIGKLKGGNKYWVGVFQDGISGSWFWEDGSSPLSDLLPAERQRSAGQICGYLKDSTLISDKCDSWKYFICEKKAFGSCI
# B1: R1CHCL34 (VHH)
# VHH: DVQLVESGGGSVQAGGSLRLSCAASGRTISNYDMAWSRQAPGKEREFVARISGSGDRTDYADSVKGRFTISRDNAKNTVYLQMNSLKPEDTAIYYCQIQDFRSPDFWSQGTQVTVSS
# B2: R2CHCL10 (VHH)
# VHH: B1 VHH with D1Q, R102G, D105S, W107S, S108G
# B3: R2CHCL94 (VHH)
# VHH: QVQLVESGGGLVQPGGSLRLSCAASGFTFSGYVMTWVRQAPGKGLEWVAHIGSGGGHATYTDSVEGRFTISRDNAKNTLYLQMNNLKAEDTAVYYCEFLGRRGQGTQVTVSS
# B4: R2CHCL22 (VHH)
# VHH: DVQLVESGGGLVQAGGSLRLSCAISGLTFSRYHMGWYRQAPGREREFVAQITWSDGTTYYPGSVKGRFTISRDNARNTVYLQIDNLKPEDTAIYYCDARKVGGPDYWGQGTQVTVSS
# B5: R2CHCL8 (VHH)
# VHH: QVQLVESGGGLVHPGGSLRLSCAASGSISSINVMGWYRQAPGKERELVARITNLGLPNYADWLKDRFTISRDNAKNTVYLQMNSLKPEDTAVYYCYLVALSAEYWGQGTQVTVSS
# B6: R1CHCL82 (VHH)
# VHH: B1 VHH with D1Q, G10E, Y95N, I98T, D100I, R102G, D105N, W107S, S108G
# B7: R1CHCL16 (VHH)
# VHH: DVQLVESGGGLVQPGGSLRLSCAASGSIFSLNAMGWYRQAPGKERELVAHITSDGRIVYADPVKGRFTISRVDGKNMVTLQMNSLKPEDTAVYYCNAKHYASNYWGQGTQVTVSS
# B8: R2CHCL24 (VHH)
# VHH: QVQLVESGGGLVQPGGSLRLSCAASGSSDSINAMGWYRQAPGKERELVAAITSGGRVVYSDSVKGRGTISRDNAKNTVYLQIASLKPEDTAVYYCNVKTKSAVLFGGMDYWGKGTQVTVSS
# B9: R2CHCL3 (VHH)
# VHH: QVQLVESGGGLVQAGDSLRLSCAASGRTFTTSLMQWHRQAPGKEREFVASITWSTGNTHYADSVKGRFTISRDNARNTVYLQMNSLKPEDTAIYTCRVLAIHGDYWGQGTQVTVSS
# B10: R2CHCL25 (VHH)
# VHH: QVQLVESGGGLVQAGGSLRLSCATSGLTLSSYYIAWYRQAPGREREFVAQIRWSDDSTYYPGSVKGRFTISRDNARNTVYLRMDNLKPEDTARYYCDARKVGGPDYWGQGTQVTVSS
# B11: R1CHCL50 (VHH)
# VHH: B5 VHH with I28F, W62S, L63V, K64T, D65G, S101K
# B12: R2CHCL87 (VHH)
# VHH: QVQLVESGGGLVQPGGSLRLSCAASGSISSINVMGWYRQAPGKERELVARITNLGLPNYADSVEGRFTISRDKDENTVYLEMNTLKPEDTAVYYCYLVGLKAEYWGQGTQVTVSS
# B13: R2CHCL13 (VHH)
# VHH: B3 VHH with T35S, H50S, H57Y, A58P, T59S, Q82L, N84D, A88P, E89D, F98M
# B14: R2CHCL49 (VHH)
# VHH: B4 VHH with L11S, R31N, G56A, T57S, T58I, P61A, A75V, R76K, T78I
# B15: R2CHCL27 (VHH)
# VHH: QVQLVESGGGLVQPGGSLRLSCAASGFTFSGYLMSWVRQAPGKGLEWVATIGSGGGITSYADSVKGRFTISRDNAKNTLYLQMNNLKHEDTAVYYCETVIKRGQGTQVTVSS
# Biological target: T1, mouse Clec9A (mouse)
# Experiment: FIG. 5 legend, statement on the groups (FACS of paragraph 573)
row,binding,Binder
1,binds,B1
2,binds,B2

# Biological target: human Clec9A (human) (UniProt Q6UXN8)
# Experiment: as above
row,binding,Binder
1,binds,B1
2,binds,B2

# Biological target: human Clec9A (human) (UniProt Q6UXN8)
# Experiment: filing's conclusion from FACS of group representatives; this clone is not in the list of those tested
row,binding,Binder
1,binds,B3
2,binds,B4
3,binds,B5
4,binds,B6

# Biological target: human Clec9A (human) (UniProt Q6UXN8)
# Experiment: FACS, purified His-tagged VHH (serial dilution from 1000 ng/ml), HEK293T cells transfected with human Clec9A, FITC anti-His
row,binding,Binder
1,binds,B7
2,binds,B3
3,binds,B4
4,binds,B8
5,binds,B9
6,binds,B10
7,binds,B11
8,binds,B5
9,binds,B12
10,binds,B1
11,binds,B6
12,binds,B2

# Biological target: human Clec9A (human) (UniProt Q6UXN8)
# Experiment: FIG. 5 legend, statement on the groups; paragraph 573 says this clone was not tested in FACS
row,binding,Binder
1,binds,B6

# Biological target: human Clec9A (human) (UniProt Q6UXN8)
# Experiment: FACS, crude periplasmic extract, CHO-K1 cells transfected with human Clec9A; parental CHO-K1 as negative control
row,binding,Binder
1,binds,B7
2,binds,B13
3,binds,B14
4,binds,B8
5,binds,B9
6,binds,B10
7,binds,B15
8,binds,B11
9,binds,B12
10,binds,B1
11,binds,B2

# Biological target: T1, mouse Clec9A (mouse)
# Experiment: FACS, crude periplasmic extract, CHO-K1 cells transfected with mouse Clec9A
row,binding,Binder
1,binds,B1
2,binds,B2
